Results are given in words; binding and its absence hold for the method and conditions named. In cells and extracts the contact can be indirect. A yes stands for co-enrichment or nearness to the bait. Other partners may have been found.
Target: PfCoronin^WT-smHA (P. falciparum (Pikine isolate, SenP019.04)) (UniProt Q8I4S2)
Experiment: affinity purification with mass spectrometry

eukaryotic translation initiation factor 3 subunit B (from UniProt Q8I3T1)
binding: binds

Source: publication doi:10.1101/2023.12.22.572193
